Test results: paper PMC5837996
No constants are given. Whether binding was seen depends on the method and setting. In cells and extracts the contact can be indirect. Some results given as binding are weak or reduced against the parent protein; the word gives no strength.

Sequences of proteins named here, by UniProt entry; tags and fusion partners are left off.
UniProt P13861: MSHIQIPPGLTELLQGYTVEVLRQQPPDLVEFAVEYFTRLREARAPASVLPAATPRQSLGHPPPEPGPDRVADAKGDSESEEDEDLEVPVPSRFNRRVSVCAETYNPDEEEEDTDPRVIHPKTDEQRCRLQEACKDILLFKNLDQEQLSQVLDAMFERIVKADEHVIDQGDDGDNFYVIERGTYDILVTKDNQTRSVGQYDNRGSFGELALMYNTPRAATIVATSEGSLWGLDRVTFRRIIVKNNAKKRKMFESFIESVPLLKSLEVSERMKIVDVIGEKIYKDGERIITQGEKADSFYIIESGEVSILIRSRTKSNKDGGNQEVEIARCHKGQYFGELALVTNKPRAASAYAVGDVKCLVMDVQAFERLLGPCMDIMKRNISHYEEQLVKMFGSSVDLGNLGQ
UniProt Q99996: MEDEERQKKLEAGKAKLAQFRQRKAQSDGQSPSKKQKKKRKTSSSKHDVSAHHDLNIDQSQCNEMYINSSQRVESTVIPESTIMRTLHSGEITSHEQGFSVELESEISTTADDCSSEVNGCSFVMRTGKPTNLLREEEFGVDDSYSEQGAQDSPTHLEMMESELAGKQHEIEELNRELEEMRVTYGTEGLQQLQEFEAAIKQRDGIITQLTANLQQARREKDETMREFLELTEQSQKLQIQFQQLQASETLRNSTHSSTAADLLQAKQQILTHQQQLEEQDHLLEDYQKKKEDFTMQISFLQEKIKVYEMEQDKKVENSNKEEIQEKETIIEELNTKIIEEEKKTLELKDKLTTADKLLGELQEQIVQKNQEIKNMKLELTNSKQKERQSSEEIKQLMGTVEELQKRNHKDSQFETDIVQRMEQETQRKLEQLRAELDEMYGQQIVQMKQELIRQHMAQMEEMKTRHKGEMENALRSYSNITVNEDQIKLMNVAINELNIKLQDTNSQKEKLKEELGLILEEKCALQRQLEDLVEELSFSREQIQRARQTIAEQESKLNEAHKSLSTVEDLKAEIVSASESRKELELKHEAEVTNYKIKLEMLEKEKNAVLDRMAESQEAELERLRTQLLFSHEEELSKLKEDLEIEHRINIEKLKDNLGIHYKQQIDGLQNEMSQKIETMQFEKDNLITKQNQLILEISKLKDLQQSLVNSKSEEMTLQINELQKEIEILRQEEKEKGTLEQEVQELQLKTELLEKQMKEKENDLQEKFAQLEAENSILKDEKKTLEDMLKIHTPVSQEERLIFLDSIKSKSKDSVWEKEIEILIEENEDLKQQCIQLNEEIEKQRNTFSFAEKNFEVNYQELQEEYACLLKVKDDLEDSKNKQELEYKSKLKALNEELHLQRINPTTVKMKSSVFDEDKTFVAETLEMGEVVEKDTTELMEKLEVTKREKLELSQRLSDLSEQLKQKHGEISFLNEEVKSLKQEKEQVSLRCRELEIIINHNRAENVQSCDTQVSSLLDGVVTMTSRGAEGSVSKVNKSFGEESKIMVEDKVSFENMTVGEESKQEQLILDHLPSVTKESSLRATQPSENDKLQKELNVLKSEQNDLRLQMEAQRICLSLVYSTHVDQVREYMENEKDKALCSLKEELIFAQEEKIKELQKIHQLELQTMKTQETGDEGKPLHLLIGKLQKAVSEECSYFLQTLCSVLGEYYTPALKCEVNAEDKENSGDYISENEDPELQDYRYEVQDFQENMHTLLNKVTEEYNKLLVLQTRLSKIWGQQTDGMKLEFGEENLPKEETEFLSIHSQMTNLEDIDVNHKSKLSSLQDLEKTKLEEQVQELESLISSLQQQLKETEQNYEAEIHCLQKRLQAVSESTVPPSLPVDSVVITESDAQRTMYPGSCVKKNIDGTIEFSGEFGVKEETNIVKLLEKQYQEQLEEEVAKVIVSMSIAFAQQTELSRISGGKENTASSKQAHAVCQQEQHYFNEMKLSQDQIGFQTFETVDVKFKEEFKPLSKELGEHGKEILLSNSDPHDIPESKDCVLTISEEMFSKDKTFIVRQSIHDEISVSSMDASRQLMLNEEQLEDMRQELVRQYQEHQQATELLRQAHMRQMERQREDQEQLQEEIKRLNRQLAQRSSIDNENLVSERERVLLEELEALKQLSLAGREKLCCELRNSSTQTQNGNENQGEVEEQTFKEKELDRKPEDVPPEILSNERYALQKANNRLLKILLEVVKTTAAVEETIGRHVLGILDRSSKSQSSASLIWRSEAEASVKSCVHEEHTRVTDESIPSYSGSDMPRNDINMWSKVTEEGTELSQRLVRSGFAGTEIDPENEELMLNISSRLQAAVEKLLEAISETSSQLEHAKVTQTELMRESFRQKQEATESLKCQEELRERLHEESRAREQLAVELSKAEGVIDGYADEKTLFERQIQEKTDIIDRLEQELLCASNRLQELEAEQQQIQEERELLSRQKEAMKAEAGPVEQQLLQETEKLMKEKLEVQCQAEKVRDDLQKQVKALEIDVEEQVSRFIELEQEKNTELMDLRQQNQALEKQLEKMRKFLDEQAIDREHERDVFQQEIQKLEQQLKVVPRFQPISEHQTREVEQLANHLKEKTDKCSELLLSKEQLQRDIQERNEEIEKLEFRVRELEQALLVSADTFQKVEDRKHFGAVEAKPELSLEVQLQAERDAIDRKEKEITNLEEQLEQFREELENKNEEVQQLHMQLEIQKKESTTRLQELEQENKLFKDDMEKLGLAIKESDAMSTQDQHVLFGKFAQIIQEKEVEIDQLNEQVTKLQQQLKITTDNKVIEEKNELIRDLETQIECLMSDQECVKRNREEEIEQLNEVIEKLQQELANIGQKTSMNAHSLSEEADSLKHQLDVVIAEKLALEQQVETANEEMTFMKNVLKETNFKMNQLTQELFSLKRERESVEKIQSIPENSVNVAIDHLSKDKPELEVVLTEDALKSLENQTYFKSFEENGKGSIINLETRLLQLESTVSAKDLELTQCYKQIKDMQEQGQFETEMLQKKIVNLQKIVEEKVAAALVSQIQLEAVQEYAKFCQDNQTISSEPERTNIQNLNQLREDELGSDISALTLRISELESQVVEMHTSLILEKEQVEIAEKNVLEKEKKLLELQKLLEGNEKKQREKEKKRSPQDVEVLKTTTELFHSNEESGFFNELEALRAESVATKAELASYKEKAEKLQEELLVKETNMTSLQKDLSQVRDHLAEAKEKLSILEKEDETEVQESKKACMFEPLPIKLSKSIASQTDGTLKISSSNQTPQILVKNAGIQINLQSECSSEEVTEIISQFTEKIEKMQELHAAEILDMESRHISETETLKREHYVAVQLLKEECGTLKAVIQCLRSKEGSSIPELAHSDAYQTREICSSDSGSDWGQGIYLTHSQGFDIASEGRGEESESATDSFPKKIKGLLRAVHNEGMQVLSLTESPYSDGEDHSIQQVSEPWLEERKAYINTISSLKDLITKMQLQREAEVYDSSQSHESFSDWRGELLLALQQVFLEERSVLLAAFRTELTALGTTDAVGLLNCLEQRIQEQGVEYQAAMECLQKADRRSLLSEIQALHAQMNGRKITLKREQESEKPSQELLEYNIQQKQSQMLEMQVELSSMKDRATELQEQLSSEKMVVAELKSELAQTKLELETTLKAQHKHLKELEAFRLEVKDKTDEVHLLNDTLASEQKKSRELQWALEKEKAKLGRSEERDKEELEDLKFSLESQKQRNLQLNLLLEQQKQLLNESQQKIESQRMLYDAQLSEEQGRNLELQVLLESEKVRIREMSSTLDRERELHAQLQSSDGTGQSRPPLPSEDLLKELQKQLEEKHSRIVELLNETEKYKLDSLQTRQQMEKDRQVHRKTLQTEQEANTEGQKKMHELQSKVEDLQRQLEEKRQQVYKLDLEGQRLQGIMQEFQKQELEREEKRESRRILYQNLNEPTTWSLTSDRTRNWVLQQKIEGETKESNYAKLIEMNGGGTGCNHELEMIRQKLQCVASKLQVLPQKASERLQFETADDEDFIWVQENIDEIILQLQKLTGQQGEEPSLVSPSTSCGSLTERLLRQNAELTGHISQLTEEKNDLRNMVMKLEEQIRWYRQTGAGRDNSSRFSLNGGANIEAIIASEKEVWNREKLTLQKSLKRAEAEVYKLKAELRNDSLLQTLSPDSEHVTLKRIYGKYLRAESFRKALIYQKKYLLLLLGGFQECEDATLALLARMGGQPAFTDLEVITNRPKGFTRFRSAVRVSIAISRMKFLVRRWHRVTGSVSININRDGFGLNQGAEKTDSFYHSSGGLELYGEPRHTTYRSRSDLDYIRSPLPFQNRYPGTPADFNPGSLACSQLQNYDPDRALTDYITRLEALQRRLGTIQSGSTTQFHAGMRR

Molecular target: regulatory subunit of protein kinase A (PKARIIα) (human (endogenous in HuT78)) (UniProt P13861)
Test: co-IP; endogenous proteins; lysates of HuT78 T-cells, unstimulated or stimulated on rICAM-1 (1 h), control or CG-NAP knockdown (GapmeR); immunoprecipitated overnight at 4°C with 2 µg anti-PKARIIα antibody or control IgG, protein A/G plus agarose; washed five times (20 mM HEPES pH 7.4, 0.1% Triton X-100, 130 mM NaCl, 10% glycerol); Western blot

Centrosome- and Golgi-localized protein kinase N-associated protein (CG-NAP) (from UniProt Q99996 1-3907)
binding: binds
